Data as given in PubChem BioAssay AID652243 (Drosophila RNAi Screening Center, 2013)
Purpose: 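Knock-downs that decrease or increase androgen receptor reporter signal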 (primary screen). Cells: Drosophila S2R+ cells. Knock-down reagent: long dsRNA against Drosophila genes. Duration: 72 h (48 h, then 24 h hormone). Challenge: synthetic androgen R1881 at 10 nM for 24 h. Detection: 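Firefly light from an androgen-responsive reporter and Renilla control light per well, raw and unnormalised, for each of two replicates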. Scale: firefly reporter light: higher = more light from androgen-responsive reporter; Renilla control light: higher = more constitutive control signal (cell number, transfection). Hit rule: 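Hit when the log firefly-to-Renilla ratio dropped or increased by a fixed fold versus the mean of GFP or LacZ controls across duplicate plates; lowering cut given as 1.5 and as 3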. Meaning of the calls: active = hit: reporter lowered or raised; inactive = no hit.
The screen tested about 24,000 reagents; below is a random part of those that have a named target and a result. Over the whole deposit, 246 (1%) are marked active. 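Plates not normalised; calls are printed but the firefly/Renilla ratio behind them is not deposited; fold cut for lowering reported inconsistently.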 Raw values are not corrected between plates. The record does not give: the amount of reagent.

target | DRSC id | firefly reporter light, replicate 1 | firefly reporter light, replicate 2 | Renilla control light, replicate 1 | Renilla control light, replicate 2 | call
CG7299 | DRSC03043 | 2.58e5 | 2.30e5 | 1.20e6 | 1.41e6 | inactive
CG7299 | DRSC25553 | 6.88e5 | 6.36e5 | 7.62e5 | 8.26e5 | inactive
scaRNA:MeU5-C46 | DRSC36572 | 9.18e5 | 6.53e5 | 1.33e6 | 9.81e5 | inactive
OXA1L | DRSC09672 | 1.01e6 | 7.90e5 | 1.13e6 | 1.21e6 | inactive
OXA1L | DRSC29571 | 6.59e5 | 3.87e5 | 1.43e6 | 1.43e6 | inactive
CG14757 | DRSC06492 | 3.89e5 | 4.65e5 | 2.71e6 | 2.64e6 | inactive
CG14757 | DRSC25690 | 1.13e6 | 1.19e6 | 1.26e6 | 1.44e6 | inactive
CG8851 | DRSC00718 | 1.95e5 | 1.27e5 | 1.07e6 | 5.54e5 | inactive
CG8851 | DRSC29343 | 3.36e5 | 2.88e5 | 1.30e6 | 1.30e6 | inactive
CG11710 | DRSC20485 | 2.52e5 | 1.83e5 | 1.10e6 | 6.69e5 | inactive
CG11710 | DRSC29756 | 5.99e5 | 4.74e5 | 1.81e6 | 1.64e6 | inactive
CG33293 | DRSC38666 | 1.18e6 | 9.92e5 | 2.09e6 | 2.41e6 | inactive
be | DRSC19607 | 1.02e5 | 1.20e5 | 1.35e6 | 1.29e6 | inactive
be | DRSC19944 | 3.52e5 | 4.30e5 | 3.07e6 | 3.09e6 | inactive
be | DRSC19945 | 5.60e5 | 4.90e5 | 2.66e6 | 3.40e6 | inactive
Mau2 | DRSC15550 | 1.06e5 | 1.01e5 | 6.22e5 | 8.19e5 | inactive
CG9467 | DRSC16498 | 78210 | 88142 | 6.63e5 | 9.15e5 | inactive
wapl | DRSC18851 | 86809 | 95354 | 5.93e5 | 6.62e5 | inactive
wapl | DRSC27941 | 7.93e5 | 4.31e5 | 3.66e6 | 1.49e6 | inactive
NtR | DRSC04628 | 2.96e5 | 4.36e5 | 2.04e6 | 1.33e6 | inactive
NtR | DRSC27686 | 1.54e5 | 2.36e5 | 7.03e5 | 8.56e5 | inactive
Rtf1 | DRSC04085 | 9.09e5 | 8.22e5 | 1.49e6 | 1.37e6 | inactive
Rtf1 | DRSC29441 | 3.44e5 | 2.47e5 | 6.47e5 | 6.47e5 | inactive
CG5554 | DRSC04513 | 2.55e5 | 2.88e5 | 1.12e6 | 8.10e5 | inactive
CG5554 | DRSC25559 | 6.45e5 | 9.82e5 | 8.45e5 | 9.77e5 | inactive

Reformatted: results already given.
{"target": "CG9467", "DRSC id": "DRSC16498", "firefly reporter light, replicate 1": 78210, "firefly reporter light, replicate 2": 88142, "Renilla control light, replicate 1": 6.63e5, "Renilla control light, replicate 2": 9.15e5, "call": "inactive"}
{"target": "wapl", "DRSC id": "DRSC18851", "firefly reporter light, replicate 1": 86809, "firefly reporter light, replicate 2": 95354, "Renilla control light, replicate 1": 5.93e5, "Renilla control light, replicate 2": 6.62e5, "call": "inactive"}
